The values below come from US12551582 (dated 2026).

A short description of the data set: peptide synthesis. The conditions noted are these: coupling step.

Take “Tert-butyl (2-((2-(((2S,3S)-1-(((3S,6S)-6-(((1H-1,2,3-triazol-4-yl)methyl)carbamoyl)-4-oxo-1,2,3,4,6,7-hexahydroazepino[3,2,1-hi]indol-3-yl)amino)-3-methyl-1-oxopentan-2-yl)amino)-2-oxoethyl)amino)-2-oxoethyl)carbamate (20-h)”: the step yield stood at 77%.
